Laboratory results published in the supplement of paper PMC12823440, “Inhibitors supercharge kinase turnover through native proteolytic circuits” (Nature, 2025).
Where a name gives a salt, the structure may show the parent alone. The list shows a part of the results. The calls rarely recur for the same compound in another form.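 In K562 cells expressing nanoluciferase-fused kinases, luminescence was recorded at 4 h intervals between 2 and 18 h, normalized as percent of control with DMSO at 100% and a positive control at 0%. A significant (2 sigma) signal drop marks a time point as decreased. The authors' rule for a hit is not shown and takes in more than the number of time points.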

Chains of the proteins cited; added tags and fusions are not shown. Lines headed by an entry give the natural chain unless they say otherwise; changes in a name come on top.
UniProt P50613: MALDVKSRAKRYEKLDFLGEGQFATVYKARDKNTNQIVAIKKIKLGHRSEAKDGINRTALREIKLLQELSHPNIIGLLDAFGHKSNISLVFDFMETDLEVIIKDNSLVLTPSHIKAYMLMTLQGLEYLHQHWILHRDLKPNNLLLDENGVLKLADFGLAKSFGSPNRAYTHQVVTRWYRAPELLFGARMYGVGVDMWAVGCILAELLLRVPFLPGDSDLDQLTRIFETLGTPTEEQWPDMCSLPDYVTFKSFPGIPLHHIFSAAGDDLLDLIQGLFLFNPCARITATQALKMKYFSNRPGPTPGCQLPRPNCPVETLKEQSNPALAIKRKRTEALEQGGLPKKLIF
UniProt P50750, whole entry: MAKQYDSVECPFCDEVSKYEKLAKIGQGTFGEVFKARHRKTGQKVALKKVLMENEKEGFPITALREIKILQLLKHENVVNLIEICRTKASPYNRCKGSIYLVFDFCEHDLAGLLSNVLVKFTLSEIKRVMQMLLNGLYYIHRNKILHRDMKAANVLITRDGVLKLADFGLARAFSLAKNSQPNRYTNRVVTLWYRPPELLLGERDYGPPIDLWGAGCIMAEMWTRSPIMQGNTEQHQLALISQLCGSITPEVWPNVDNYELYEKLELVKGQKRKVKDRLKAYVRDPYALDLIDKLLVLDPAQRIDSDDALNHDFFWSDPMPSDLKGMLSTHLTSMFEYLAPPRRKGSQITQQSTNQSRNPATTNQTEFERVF
UniProt O96017, whole entry: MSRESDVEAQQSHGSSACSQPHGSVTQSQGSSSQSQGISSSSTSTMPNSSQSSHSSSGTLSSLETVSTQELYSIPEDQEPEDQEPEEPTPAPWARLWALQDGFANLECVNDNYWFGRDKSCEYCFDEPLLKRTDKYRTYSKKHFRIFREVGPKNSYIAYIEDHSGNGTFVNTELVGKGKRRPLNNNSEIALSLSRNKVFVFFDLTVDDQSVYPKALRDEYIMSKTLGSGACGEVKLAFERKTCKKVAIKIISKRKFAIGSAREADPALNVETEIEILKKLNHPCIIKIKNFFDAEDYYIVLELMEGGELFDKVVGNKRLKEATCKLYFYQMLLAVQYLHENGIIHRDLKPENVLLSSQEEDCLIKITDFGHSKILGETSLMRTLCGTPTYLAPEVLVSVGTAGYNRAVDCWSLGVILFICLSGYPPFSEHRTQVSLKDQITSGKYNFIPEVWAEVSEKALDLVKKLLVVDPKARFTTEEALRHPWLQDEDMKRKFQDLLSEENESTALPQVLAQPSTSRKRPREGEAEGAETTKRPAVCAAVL
UniProt P07333, whole entry: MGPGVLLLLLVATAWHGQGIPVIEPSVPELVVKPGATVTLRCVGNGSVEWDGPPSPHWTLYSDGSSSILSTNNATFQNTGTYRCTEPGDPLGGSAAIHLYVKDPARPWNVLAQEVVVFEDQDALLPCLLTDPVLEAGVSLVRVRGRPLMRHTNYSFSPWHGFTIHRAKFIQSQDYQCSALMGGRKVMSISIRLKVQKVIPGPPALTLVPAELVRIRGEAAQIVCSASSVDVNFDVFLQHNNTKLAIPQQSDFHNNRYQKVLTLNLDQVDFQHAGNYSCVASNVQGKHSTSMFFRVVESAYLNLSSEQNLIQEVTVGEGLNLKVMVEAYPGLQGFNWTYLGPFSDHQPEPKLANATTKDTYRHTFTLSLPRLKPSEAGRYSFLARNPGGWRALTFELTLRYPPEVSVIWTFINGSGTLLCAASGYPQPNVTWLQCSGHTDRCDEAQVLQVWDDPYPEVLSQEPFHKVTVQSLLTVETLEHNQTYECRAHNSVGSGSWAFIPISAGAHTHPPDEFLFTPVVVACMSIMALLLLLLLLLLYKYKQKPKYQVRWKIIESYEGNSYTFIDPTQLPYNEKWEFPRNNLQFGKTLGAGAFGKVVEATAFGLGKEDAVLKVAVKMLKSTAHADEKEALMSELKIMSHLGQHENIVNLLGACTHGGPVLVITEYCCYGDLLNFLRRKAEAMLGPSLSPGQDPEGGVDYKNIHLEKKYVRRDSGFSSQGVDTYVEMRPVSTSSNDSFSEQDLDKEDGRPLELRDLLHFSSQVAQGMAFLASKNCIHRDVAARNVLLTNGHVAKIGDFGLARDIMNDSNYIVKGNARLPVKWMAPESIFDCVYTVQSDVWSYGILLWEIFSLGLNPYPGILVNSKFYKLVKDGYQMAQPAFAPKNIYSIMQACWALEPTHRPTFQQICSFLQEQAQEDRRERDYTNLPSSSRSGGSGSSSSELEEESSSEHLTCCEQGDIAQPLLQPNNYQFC
UniProt P41240: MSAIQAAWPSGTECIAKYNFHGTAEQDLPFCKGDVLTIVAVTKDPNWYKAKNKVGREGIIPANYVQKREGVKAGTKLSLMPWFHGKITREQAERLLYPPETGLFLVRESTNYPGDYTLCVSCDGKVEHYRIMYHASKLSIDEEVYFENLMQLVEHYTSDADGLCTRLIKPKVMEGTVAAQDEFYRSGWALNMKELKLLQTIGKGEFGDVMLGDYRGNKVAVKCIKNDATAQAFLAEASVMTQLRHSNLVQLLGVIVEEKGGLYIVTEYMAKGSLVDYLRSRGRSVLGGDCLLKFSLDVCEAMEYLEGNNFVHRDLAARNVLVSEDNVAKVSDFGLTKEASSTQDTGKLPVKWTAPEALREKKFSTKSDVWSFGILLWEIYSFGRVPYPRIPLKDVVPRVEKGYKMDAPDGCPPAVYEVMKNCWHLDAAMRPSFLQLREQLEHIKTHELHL
UniProt P48729: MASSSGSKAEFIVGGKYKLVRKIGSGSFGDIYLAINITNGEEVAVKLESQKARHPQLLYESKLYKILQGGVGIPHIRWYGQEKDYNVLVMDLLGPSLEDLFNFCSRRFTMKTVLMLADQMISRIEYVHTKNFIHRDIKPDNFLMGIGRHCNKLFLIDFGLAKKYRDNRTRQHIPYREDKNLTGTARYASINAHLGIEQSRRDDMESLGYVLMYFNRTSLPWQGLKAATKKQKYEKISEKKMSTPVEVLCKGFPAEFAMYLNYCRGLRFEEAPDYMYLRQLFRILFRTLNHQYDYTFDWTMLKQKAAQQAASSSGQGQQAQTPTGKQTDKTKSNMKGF
UniProt P48730: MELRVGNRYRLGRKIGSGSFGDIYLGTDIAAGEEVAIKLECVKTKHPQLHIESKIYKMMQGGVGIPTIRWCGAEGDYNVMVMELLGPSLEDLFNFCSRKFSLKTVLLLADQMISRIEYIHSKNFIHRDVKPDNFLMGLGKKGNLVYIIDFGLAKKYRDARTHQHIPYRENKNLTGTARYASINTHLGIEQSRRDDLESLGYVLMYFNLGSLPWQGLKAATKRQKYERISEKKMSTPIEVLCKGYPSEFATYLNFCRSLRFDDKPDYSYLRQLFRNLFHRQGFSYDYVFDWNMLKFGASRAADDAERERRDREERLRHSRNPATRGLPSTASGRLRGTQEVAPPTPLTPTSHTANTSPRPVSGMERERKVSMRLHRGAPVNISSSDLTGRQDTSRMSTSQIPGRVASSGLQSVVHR
UniProt Q92630: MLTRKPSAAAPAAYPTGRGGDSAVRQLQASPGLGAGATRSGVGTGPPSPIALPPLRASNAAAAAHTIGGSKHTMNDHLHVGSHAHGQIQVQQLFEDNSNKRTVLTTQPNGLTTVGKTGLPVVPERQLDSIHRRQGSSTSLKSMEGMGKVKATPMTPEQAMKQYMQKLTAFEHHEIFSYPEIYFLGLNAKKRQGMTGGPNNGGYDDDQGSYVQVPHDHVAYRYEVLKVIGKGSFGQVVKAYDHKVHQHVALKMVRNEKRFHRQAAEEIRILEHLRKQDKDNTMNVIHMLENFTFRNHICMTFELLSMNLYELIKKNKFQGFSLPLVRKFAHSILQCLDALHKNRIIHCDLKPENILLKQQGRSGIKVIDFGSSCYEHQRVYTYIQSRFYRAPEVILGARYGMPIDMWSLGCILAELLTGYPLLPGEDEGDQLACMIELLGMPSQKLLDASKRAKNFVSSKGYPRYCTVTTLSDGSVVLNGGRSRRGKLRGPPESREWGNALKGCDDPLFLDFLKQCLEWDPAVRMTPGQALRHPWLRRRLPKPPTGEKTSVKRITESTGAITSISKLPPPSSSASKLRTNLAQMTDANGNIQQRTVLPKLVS
UniProt P29317, whole entry: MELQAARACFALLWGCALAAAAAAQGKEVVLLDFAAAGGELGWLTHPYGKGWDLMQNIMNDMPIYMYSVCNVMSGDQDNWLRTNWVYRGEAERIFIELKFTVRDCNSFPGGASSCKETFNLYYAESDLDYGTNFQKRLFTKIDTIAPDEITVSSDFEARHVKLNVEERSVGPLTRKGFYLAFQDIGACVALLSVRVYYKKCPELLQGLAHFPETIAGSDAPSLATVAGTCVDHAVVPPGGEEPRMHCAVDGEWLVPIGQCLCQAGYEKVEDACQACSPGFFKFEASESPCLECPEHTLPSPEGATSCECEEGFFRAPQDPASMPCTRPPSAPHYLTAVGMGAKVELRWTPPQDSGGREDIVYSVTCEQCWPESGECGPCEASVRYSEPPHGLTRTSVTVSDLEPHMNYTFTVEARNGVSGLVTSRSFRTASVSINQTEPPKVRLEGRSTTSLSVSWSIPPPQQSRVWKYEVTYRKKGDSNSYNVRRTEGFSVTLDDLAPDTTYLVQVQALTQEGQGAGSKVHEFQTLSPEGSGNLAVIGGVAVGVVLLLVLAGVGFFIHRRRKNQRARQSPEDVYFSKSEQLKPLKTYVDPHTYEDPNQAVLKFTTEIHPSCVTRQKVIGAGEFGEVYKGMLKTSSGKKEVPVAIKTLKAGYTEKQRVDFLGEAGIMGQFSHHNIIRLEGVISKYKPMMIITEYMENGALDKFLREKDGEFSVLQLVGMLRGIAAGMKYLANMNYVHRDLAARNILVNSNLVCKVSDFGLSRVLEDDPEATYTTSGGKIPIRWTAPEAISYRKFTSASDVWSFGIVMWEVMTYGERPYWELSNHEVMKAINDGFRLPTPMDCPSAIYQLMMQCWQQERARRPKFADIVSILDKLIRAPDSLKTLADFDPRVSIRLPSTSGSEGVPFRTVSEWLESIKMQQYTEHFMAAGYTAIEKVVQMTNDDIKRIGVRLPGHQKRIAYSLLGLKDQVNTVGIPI
UniProt P21860, whole entry: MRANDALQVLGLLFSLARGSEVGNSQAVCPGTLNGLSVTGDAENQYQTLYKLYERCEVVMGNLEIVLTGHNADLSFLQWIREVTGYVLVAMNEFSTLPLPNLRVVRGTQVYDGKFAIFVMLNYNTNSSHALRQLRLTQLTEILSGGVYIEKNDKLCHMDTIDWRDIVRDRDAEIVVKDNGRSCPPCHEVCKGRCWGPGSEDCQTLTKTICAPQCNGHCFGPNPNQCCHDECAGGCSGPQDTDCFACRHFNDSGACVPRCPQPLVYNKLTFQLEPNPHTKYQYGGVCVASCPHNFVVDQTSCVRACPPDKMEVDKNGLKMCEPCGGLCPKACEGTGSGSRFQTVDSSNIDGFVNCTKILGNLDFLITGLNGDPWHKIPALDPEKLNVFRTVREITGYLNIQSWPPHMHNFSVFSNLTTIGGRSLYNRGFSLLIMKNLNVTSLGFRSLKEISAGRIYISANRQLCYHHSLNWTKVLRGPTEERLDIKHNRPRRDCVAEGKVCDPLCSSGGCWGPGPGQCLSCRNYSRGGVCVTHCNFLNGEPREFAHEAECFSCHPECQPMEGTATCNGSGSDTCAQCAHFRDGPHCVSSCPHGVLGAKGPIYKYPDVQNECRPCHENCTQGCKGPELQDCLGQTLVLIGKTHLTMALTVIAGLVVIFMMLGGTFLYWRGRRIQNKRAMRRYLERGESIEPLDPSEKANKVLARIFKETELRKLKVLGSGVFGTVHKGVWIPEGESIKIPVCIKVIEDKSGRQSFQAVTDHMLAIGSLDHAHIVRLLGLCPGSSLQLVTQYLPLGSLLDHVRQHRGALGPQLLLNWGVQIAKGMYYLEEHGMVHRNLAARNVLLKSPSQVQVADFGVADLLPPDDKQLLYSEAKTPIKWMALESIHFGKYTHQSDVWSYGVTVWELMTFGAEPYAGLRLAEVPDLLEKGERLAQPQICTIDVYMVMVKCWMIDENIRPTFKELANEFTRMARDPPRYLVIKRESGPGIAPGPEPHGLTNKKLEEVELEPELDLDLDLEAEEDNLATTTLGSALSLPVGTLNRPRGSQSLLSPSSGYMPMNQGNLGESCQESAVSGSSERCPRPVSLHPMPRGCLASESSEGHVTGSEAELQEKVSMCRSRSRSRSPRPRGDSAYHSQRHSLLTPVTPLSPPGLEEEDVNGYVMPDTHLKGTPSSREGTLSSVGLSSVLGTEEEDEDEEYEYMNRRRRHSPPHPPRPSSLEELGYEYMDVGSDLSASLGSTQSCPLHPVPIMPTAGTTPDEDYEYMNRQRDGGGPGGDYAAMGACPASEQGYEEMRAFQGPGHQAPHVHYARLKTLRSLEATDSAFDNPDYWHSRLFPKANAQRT

Experiments:
Assay in all cases: kinase-Nluc reporter destabilization hit call (1 = scored as downregulated) (binary); higher = compound decreases kinase abundance
Details in all cases: K562; 2-18 h
[1] = molecular target: CDK7 (UniProt P50613)
[2] = molecular target: CDK9 (UniProt P50750)
[3] = molecular target: CHEK2 (UniProt O96017)
[4] = molecular target: CSF1R (UniProt P07333)
[5] = molecular target: CSK (UniProt P41240)
[6] = molecular target: CSNK1A1 (UniProt P48729)
[7] = molecular target: CSNK1D (UniProt P48730)
[8] = molecular target: DDR1 (UniProt Q08345)
[9] = molecular target: DYRK1B (UniProt Q9Y463)
[10] = molecular target: DYRK2 (UniProt Q92630)
[11] = molecular target: EGFR (UniProt P00533)
[12] = molecular target: EGFR_G719S (UniProt P00533)
[13] = molecular target: EGFR_G719S_T790M (UniProt P00533)
[14] = molecular target: EGFR_L718V (UniProt P00533)
[15] = molecular target: EGFR_L858R (UniProt P00533)
[16] = molecular target: EGFR_L861Q (UniProt P00533)
[17] = molecular target: EGFR_T790M (UniProt P00533)
[18] = molecular target: EPHA2 (UniProt P29317)
[19] = molecular target: ERBB3 (UniProt P21860)
[20] = molecular target: ERBB4_R711C (clone: ERBB4_mut) (UniProt Q15303)

Measured: kinase-Nluc reporter destabilization hit call

Nc1nc2c(nc(Br)n2[C@@H]2O[C@@H]3COP(=O)(O)O[C@H]3[C@H]2O)c(=O)[nH]1 [8-Bromo-cGMP (sodium)] (10 µM)
inactive: [1] 0 | [2] 0 | [3] 0 | [4] 0 | [5] 0 | [6] 0 | [7] 0 | [8] 0 | [9] 0 | [10] 0 | [11] 0 | [12] 0 | [13] 0 | [14] 0 | [15] 0 | [16] 0 | [17] 0 | [18] 0 | [19] 0 | [20] 0

Nc1[nH]nc2nc(-c3ccc(NS(=O)(=O)c4cc(Cl)ccc4Cl)cc3)cnc12 (10 µM)
inactive: [1] 0 | [2] 0 | [3] 0 | [4] 0 | [5] 0 | [6] 0 | [7] 0 | [8] 0 | [9] 0 | [10] 0 | [11] 0 | [12] 0 | [13] 0 | [14] 0 | [15] 0 | [16] 0 | [17] 0 | [18] 0 | [19] 0 | [20] 0

CCn1c(-c2nonc2N)nc2c(C#CC(C)(C)O)ncc(OC[C@H]3CCCNC3)c21 (10 µM)
inactive: [1] 0 | [2] 0 | [3] 0 | [4] 0 | [5] 0 | [6] 0 | [7] 0 | [8] 0 | [9] 0 | [10] 0 | [11] 0 | [12] 0 | [13] 0 | [14] 0 | [15] 0 | [16] 0 | [17] 0 | [18] 0 | [19] 0 | [20] 0

Cc1nc[nH]c1CN1CCN(C(=O)N[C@@H](CC(C)C)C(=O)O)[C@@H](Cc2ccccc2)C1=O (10 µM)
inactive: [1] 0 | [2] 0 | [3] 0 | [4] 0 | [5] 0 | [6] 0 | [7] 0 | [8] 0 | [9] 0 | [10] 0 | [11] 0 | [12] 0 | [13] 0 | [14] 0 | [15] 0 | [16] 0 | [17] 0 | [18] 0 | [19] 0 | [20] 0

N[C@@H]1CCCN(c2c(/C=C3\SC(=O)NC3=O)cccc2-c2ccccc2)C1 (10 µM)
inactive: [1] 0 | [2] 0 | [3] 0 | [4] 0 | [5] 0 | [6] 0 | [7] 0 | [8] 0 | [9] 0 | [10] 0 | [11] 0 | [12] 0 | [13] 0 | [14] 0 | [15] 0 | [16] 0 | [17] 0 | [18] 0 | [19] 0 | [20] 0

CC(C)n1c([C@H](C)Nc2ncnc(N)c2C#N)cc2cccc(-c3ccc(=O)n(C)c3)c2c1=O (10 µM)
inactive: [1] 0 | [2] 0 | [3] 0 | [4] 0 | [5] 0 | [6] 0 | [7] 0 | [8] 0 | [9] 0 | [10] 0 | [11] 0 | [12] 0 | [13] 0 | [14] 0 | [15] 0 | [16] 0 | [17] 0 | [18] 0 | [19] 0 | [20] 0

CN1CCN(c2ccc(Nc3ncc4cc(C#N)c(=O)n(C5CCCC5)c4n3)cc2)CC1 (10 µM)
inactive: [1] 0 | [2] 0 | [3] 0 | [4] 0 | [5] 0 | [6] 0 | [7] 0 | [8] 0 | [9] 0 | [10] 0 | [11] 0 | [12] 0 | [13] 0 | [14] 0 | [15] 0 | [16] 0 | [17] 0 | [18] 0 | [19] 0 | [20] 0

N#C/C(=C\c1ccc(O)c(O)c1)C(=O)O [Tyrphostin AG30] (10 µM)
inactive: [1] 0 | [2] 0 | [3] 0 | [4] 0 | [5] 0 | [6] 0 | [7] 0 | [8] 0 | [9] 0 | [10] 0 | [11] 0 | [12] 0 | [13] 0 | [14] 0 | [15] 0 | [16] 0 | [17] 0 | [18] 0 | [19] 0 | [20] 0

CNC(=O)c1cc2c(Oc3ccc(NC(=O)C4(C(=O)Nc5ccc(F)cc5)CC4)cc3)ccnc2cc1OC (2.5 µM)
inactive: [1] 0 | [2] 0 | [3] 0 | [4] 0 | [5] 0 | [6] 0 | [7] 0 | [8] 0 | [9] 0 | [10] 0 | [11] 0 | [12] 0 | [13] 0 | [14] 0 | [15] 0 | [16] 0 | [17] 0 | [18] 0 | [19] 0 | [20] 0

COc1ccc2c(Oc3ccc4c(C(=O)Nc5ccccc5N)cccc4c3)ccnc2c1 [Chiauranib] (10 µM)
inactive: [1] 0 | [2] 0 | [3] 0 | [5] 0 | [6] 0 | [7] 0 | [8] 0 | [9] 0 | [10] 0 | [11] 0 | [12] 0 | [13] 0 | [14] 0 | [15] 0 | [16] 0 | [17] 0 | [18] 0 | [19] 0 | [20] 0
active: [4] 1

N#Cc1ccc(-c2cnc3ccc(-c4ccc(C(=O)N5CCOCC5)cc4)cn23)cc1 (10 µM)
inactive: [1] 0 | [2] 0 | [3] 0 | [4] 0 | [5] 0 | [6] 0 | [7] 0 | [8] 0 | [9] 0 | [10] 0 | [11] 0 | [12] 0 | [13] 0 | [14] 0 | [15] 0 | [16] 0 | [17] 0 | [18] 0 | [19] 0 | [20] 0

COCCOc1ccc2c(c1)ncn2-c1ccc2cccc(N3CCC(N)CC3)c2n1 (10 µM)
inactive: [1] 0 | [2] 0 | [3] 0 | [4] 0 | [5] 0 | [6] 0 | [7] 0 | [8] 0 | [9] 0 | [10] 0 | [11] 0 | [12] 0 | [13] 0 | [14] 0 | [15] 0 | [16] 0 | [17] 0 | [18] 0 | [19] 0 | [20] 0

Nc1ncnc2c1nc(Br)n2[C@@H]1O[C@@H]2COP(=O)(O)O[C@H]2[C@H]1O [8-Bromo-cAMP sodium salt] (10 µM)
inactive: [1] 0 | [2] 0 | [3] 0 | [4] 0 | [5] 0 | [6] 0 | [7] 0 | [8] 0 | [9] 0 | [10] 0 | [11] 0 | [12] 0 | [13] 0 | [14] 0 | [15] 0 | [16] 0 | [17] 0 | [18] 0 | [19] 0 | [20] 0

Cc1cc([C@@H](C)Nc2ccccc2C(=O)O)c2nc(N3CCOCC3)cc(=O)n2c1 (10 µM)
inactive: [1] 0 | [2] 0 | [3] 0 | [4] 0 | [5] 0 | [6] 0 | [7] 0 | [8] 0 | [9] 0 | [10] 0 | [11] 0 | [12] 0 | [13] 0 | [14] 0 | [15] 0 | [16] 0 | [17] 0 | [18] 0 | [19] 0 | [20] 0

CCC(=O)Nc1cccc(Oc2nc(Nc3ccc(N4CCN(C)CC4)cc3OC)ncc2Cl)c1 (10 µM)
inactive: [1] 0 | [2] 0 | [3] 0 | [4] 0 | [5] 0 | [6] 0 | [7] 0 | [8] 0 | [9] 0 | [10] 0 | [11] 0 | [12] 0 | [13] 0 | [14] 0 | [15] 0 | [16] 0 | [17] 0 | [18] 0 | [19] 0 | [20] 0

Oc1c(F)cc(-c2cnccc2-c2ccc(N3CCOCC3)cc2)cc1F (10 µM)
inactive: [1] 0 | [2] 0 | [3] 0 | [4] 0 | [5] 0 | [6] 0 | [7] 0 | [8] 0 | [9] 0 | [10] 0 | [11] 0 | [12] 0 | [13] 0 | [14] 0 | [15] 0 | [16] 0 | [17] 0 | [18] 0 | [19] 0 | [20] 0

O=C1Nc2ccc(I)cc2/C1=C/c1cc(Br)c(O)c(Br)c1 (10 µM)
active: [2] 1
inactive: [1] 0 | [3] 0 | [4] 0 | [5] 0 | [6] 0 | [7] 0 | [8] 0 | [9] 0 | [10] 0 | [11] 0 | [12] 0 | [13] 0 | [14] 0 | [15] 0 | [16] 0 | [17] 0 | [18] 0 | [19] 0 | [20] 0

CO[C@H]1CC[C@H](N2C(=O)CNc3ncc(-c4ccc(C(C)(C)O)nc4)nc32)CC1 (2.5 µM)
inactive: [1] 0 | [2] 0 | [3] 0 | [4] 0 | [5] 0 | [6] 0 | [7] 0 | [8] 0 | [9] 0 | [10] 0 | [11] 0 | [12] 0 | [13] 0 | [14] 0 | [15] 0 | [16] 0 | [17] 0 | [18] 0 | [19] 0 | [20] 0

Already shown: 5 of the compounds above.
N[C@@H]1CCCN(c2c(/C=C3\SC(=O)NC3=O)cccc2-c2ccccc2)C1 (10 µM)
inactive: [1] 0 | [2] 0 | [3] 0 | [4] 0 | [5] 0 | [6] 0 | [7] 0 | [8] 0 | [9] 0 | [10] 0 | [11] 0 | [12] 0 | [13] 0 | [14] 0 | [15] 0 | [16] 0 | [17] 0 | [18] 0 | [19] 0 | [20] 0

CC(C)n1c([C@H](C)Nc2ncnc(N)c2C#N)cc2cccc(-c3ccc(=O)n(C)c3)c2c1=O (10 µM)
inactive: [1] 0 | [2] 0 | [3] 0 | [4] 0 | [5] 0 | [6] 0 | [7] 0 | [8] 0 | [9] 0 | [10] 0 | [11] 0 | [12] 0 | [13] 0 | [14] 0 | [15] 0 | [16] 0 | [17] 0 | [18] 0 | [19] 0 | [20] 0

CN1CCN(c2ccc(Nc3ncc4cc(C#N)c(=O)n(C5CCCC5)c4n3)cc2)CC1 (10 µM)
inactive: [1] 0 | [2] 0 | [3] 0 | [4] 0 | [5] 0 | [6] 0 | [7] 0 | [8] 0 | [9] 0 | [10] 0 | [11] 0 | [12] 0 | [13] 0 | [14] 0 | [15] 0 | [16] 0 | [17] 0 | [18] 0 | [19] 0 | [20] 0

N#C/C(=C\c1ccc(O)c(O)c1)C(=O)O [Tyrphostin AG30] (10 µM)
inactive: [1] 0 | [2] 0 | [3] 0 | [4] 0 | [5] 0 | [6] 0 | [7] 0 | [8] 0 | [9] 0 | [10] 0 | [11] 0 | [12] 0 | [13] 0 | [14] 0 | [15] 0 | [16] 0 | [17] 0 | [18] 0 | [19] 0 | [20] 0

CNC(=O)c1cc2c(Oc3ccc(NC(=O)C4(C(=O)Nc5ccc(F)cc5)CC4)cc3)ccnc2cc1OC (2.5 µM)
inactive: [1] 0 | [2] 0 | [3] 0 | [4] 0 | [5] 0 | [6] 0 | [7] 0 | [8] 0 | [9] 0 | [10] 0 | [11] 0 | [12] 0 | [13] 0 | [14] 0 | [15] 0 | [16] 0 | [17] 0 | [18] 0 | [19] 0 | [20] 0
